{"source": "patent US20200297775A1", "about": "“ENHANCED DIRECT CARDIAC REPROGRAMMING” (The J. David Gladstone Institutes, A Testamentary Trust …, priority 2016, published 2020)", "key": {"[1]": {"tested_on": "Thy1+ neonatal cardiac fibroblasts from α-MHC-GFP transgenic mice", "experiment": "Drug screening of GMT cardiac reprogramming, α-MHC-GFP reporter, high-content imaging", "format": "cell-based, mouse", "details": "compounds added day 1, read-out 2 weeks", "from_the_text": "To identify biological pathways that could be manipulated to improve cardiac reprogramming, a chemical biology approach involving an unbiased small molecule library screen was used. Cardiac reprogramming was induced with the recently described polycistronic GMT retrovirus Mef2c-P2A-Gata4-T2A-Tbx5 to ensure that each of the three transcription factors are optimally expressed, as described in detail in Wang et al. (2015) Circ. Res. 116:237-244.\nBriefly, mouse cardiac fibroblasts (CF) were isolated from PO-P4 αMHC-GFP transgenic neonates using the migration method as previously described. Burridge et al. (2012) Cell Stem Cell 10:16-28; Ieda et al. (2010) Cell 142:375-386. […] Cells were sorted for APC^+ cells by fluorescence activated cell sorting (FACS) and plated onto 10 cm gelatin-coated plates and used fresh for all studies without freezing. […]\nFor drug screening, Thy1^+ neonatal cardiac fibroblasts from α-MHC-GFP transgenic mice were plated in 384-well plates at a density of 2000 cells/well. […] Data were analyzed using the INCELL image-analysis package.\nFor immunocytochemical analysis and quantification, samples were fixed using 4% paraformaldehyde (PFA), washed twice in PBS containing 0.1% Triton X-100 (PBST), and blocked with Power Block Universal Blocking Reagent (Biogenex, # HK085-5K) for 15 minutes at room temperature as previously described. […]"}, "human fibroblasts": {"tested_on": "human fibroblasts", "experiment": "Reprogramming of human fibroblasts with fewer factors (4F, MMT)", "format": "cell-based", "details": "in the presence of SB431542 and XAV939; data not shown"}}, "note": "At least one compound was matched to its structure with a doubt left."}
{"smiles": "CC/C=C\\C/C=C\\C/C=C\\C/C=C\\C/C=C\\C/C=C\\CCC(=O)O", "note": "[DHA, docosahexaenoic acid]", "values": [{"measurement": "hit in drug screen (Z score over 5)", "setting": "[1]", "result": "top hits"}]}
{"smiles": "C[C@@H]1C[C@H]2[C@@H]3CCC4=CC(=O)C=C[C@]4(C)[C@@]3(F)[C@@H](O)C[C@]2(C)[C@@]1(O)C(=O)CO", "note": "[dexamethasone]", "values": [{"measurement": "effect on MMT reprogramming", "setting": "human fibroblasts", "result": "enable MMT reprogramming"}]}
